Laboratory results reported in paper PMC11442487.
No constants are given. Whether binding was seen depends on the method and setting. Binding seen in cells or lysates may run through a third protein. Some results given as binding are weak or reduced against the parent protein; the word gives no strength. For some of these results: Where a sequence is shown, tags or fusion partners need not be part of it.

T1: GST-IL-4 fusion protein (mouse) (UniProt P07750)
T1 sequence: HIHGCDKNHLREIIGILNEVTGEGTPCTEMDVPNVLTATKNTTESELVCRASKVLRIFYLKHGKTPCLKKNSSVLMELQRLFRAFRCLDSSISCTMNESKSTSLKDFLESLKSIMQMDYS

T2: Trem2, transfected in HEK-293T cells (UniProt Q99NH8)
T2 sequence: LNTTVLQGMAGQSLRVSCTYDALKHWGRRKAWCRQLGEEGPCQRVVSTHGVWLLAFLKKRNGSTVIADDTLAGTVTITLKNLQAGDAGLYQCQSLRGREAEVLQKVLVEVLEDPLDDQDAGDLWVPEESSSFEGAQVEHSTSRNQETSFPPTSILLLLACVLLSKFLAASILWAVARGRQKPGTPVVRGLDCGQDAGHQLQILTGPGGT

T3: endogenous Trem2 of RAW 264.7 cells (mouse (endogenous in RAW 264.7)) (UniProt Q99NH8)
T3 sequence: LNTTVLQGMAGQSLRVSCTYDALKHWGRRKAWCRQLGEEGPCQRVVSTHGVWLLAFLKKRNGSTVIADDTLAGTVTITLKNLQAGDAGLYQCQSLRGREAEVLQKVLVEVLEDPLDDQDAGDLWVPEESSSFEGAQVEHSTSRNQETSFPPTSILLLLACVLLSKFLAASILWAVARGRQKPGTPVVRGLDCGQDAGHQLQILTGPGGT


What was measured:
[1] = molecular target: T1, GST-IL-4 fusion protein (mouse); assay: pull-down; GST-IL-4 immobilized on GST beads, incubated with His-tagged full-length Trem2 or fragments expressed in HEK-293T cells; western blot
[2] = molecular target: T2, Trem2, transfected in HEK-293T cells; assay: co-IP; lysates of transfected HEK-293T in 1x IP lysis buffer; anti-IL-4 or anti-Trem2 antibody at 4°C overnight, Protein A/G Plus-Agarose; western blot
[3] = molecular target: T3, endogenous Trem2 of RAW 264.7 cells (mouse (endogenous in RAW 264.7)); assay: co-IP; endogenous proteins, lysates of RAW 264.7 and RAW 264.7 IL-4R-KO cells; anti-IL-4 or anti-Trem2 antibody at 4°C overnight, Protein A/G Plus-Agarose; western blot

binding [1] | Binder | also measured
binds | His-tagged N-terminal aa1-aa132 of Trem2 (domain or fragment, UniProt Q99NH8 19-132) LNTTVLQGMAGQSLRVSCTYDALKHWGRRKAWCRQLGEEGPCQRVVSTHGVWLLAFLKKRNGSTVIADDTLAGTVTITLKNLQAGDAGLYQCQSLRGREAEVLQKVLVEVLEDP | 
 | IL-4, transfected in HEK-293T cells (ligand, UniProt P07750 21-140) HIHGCDKNHLREIIGILNEVTGEGTPCTEMDVPNVLTATKNTTESELVCRASKVLRIFYLKHGKTPCLKKNSSVLMELQRLFRAFRCLDSSISCTMNESKSTSLKDFLESLKSIMQMDYS | binding [2]: binds
 | endogenous IL-4 of RAW 264.7 cells (ligand, UniProt P07750 21-140) HIHGCDKNHLREIIGILNEVTGEGTPCTEMDVPNVLTATKNTTESELVCRASKVLRIFYLKHGKTPCLKKNSSVLMELQRLFRAFRCLDSSISCTMNESKSTSLKDFLESLKSIMQMDYS | binding [3]: binds
no binding | His-tagged NT aa133-227 of Trem2 (domain or fragment, UniProt Q99NH8 133-227) LDDQDAGDLWVPEESSSFEGAQVEHSTSRNQETSFPPTSILLLLACVLLSKFLAASILWAVARGRQKPGTPVVRGLDCGQDAGHQLQILTGPGGT | 
